Amino acid sequences for entries named in this document (tags omitted).
UniProt Q01959, whole entry: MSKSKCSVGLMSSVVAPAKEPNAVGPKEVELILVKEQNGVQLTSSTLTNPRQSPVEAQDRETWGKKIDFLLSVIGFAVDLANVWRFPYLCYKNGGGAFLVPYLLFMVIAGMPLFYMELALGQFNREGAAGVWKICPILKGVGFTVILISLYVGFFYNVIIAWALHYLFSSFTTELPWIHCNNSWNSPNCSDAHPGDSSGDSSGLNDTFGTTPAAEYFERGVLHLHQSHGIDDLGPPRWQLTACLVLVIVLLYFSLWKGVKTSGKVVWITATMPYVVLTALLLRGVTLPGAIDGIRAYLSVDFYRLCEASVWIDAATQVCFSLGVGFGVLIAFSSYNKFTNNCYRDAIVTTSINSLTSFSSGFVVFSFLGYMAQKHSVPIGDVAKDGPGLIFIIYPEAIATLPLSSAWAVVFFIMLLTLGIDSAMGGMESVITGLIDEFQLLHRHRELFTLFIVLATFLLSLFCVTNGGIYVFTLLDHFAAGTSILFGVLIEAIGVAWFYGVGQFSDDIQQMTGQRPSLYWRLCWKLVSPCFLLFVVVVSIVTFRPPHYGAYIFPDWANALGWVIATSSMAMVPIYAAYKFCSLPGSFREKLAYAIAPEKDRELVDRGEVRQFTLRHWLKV

In publication PMC4460958, “Insights into the Modulation of Dopamine Transporter Function by Amphetamine, Orphenadrine, and Cocaine Binding” (Frontiers in Neurology, 2015):

Biological target: T1, human dopamine transporter (hDAT) (Homo sapiens, UniProt Q01959)
T1 construct: gene SLC6A3
Experiment: cell-based

Cc1ccccc1C(OCCN(C)C)c1ccccc1 (stereo not shown) [ORPH, orphenadrine]
IC50: ~10 µM
